Assay results taken from the M2OR odorant receptor database.
Some of the results follow. Calls are pooled over several reports, among them a noisy single-well screen.

What was measured:
Conditions in all cases: stereoisomer not certain
[1] = tested on: T1, O52R1
T1 sequence (whole entry): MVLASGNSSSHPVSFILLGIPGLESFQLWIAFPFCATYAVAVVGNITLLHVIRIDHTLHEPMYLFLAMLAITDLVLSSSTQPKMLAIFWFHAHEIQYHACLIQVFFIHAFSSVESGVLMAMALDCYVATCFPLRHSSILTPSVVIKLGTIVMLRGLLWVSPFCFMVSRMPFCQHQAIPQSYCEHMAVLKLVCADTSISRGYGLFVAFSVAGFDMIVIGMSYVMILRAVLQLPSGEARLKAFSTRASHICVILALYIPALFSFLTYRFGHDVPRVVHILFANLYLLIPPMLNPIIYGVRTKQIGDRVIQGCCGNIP
Method in brief: (§1)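 Values were gathered from published papers (main text and supplementary material), with extra details requested from the original authors when needed, and checked for typos and inconsistencies. Each receptor–molecule pair is called responsive (active) if the original authors judged the measured signal statistically different from baseline, and non-responsive (inactive) otherwise. Assay methods varied by source, often transient mammalian cell-line luciferase assays. Recorded details include cell line, G-protein, co-transfected protein and tags.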

[2] = tested on: T2, O52W1
T2 sequence (whole entry): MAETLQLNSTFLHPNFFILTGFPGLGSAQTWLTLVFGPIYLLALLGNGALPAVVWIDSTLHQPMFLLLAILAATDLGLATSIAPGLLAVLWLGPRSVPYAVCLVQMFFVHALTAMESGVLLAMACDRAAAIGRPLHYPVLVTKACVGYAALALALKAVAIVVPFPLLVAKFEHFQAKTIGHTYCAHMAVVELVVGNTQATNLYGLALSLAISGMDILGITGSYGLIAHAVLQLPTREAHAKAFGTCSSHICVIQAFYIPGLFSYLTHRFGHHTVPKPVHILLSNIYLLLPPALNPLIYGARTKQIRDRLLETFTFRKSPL
Method in brief: as §1

[3] = tested on: T3, O56A3
T3 sequence (whole entry): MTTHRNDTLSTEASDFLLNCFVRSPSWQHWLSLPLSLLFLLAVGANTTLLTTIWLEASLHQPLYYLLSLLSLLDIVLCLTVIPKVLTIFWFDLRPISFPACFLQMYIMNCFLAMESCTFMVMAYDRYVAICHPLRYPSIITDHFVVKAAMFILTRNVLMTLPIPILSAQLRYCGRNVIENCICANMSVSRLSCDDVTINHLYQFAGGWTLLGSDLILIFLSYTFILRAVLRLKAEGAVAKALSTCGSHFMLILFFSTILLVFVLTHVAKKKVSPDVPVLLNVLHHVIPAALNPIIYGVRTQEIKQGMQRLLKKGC
Method in brief: as §1

[4] = tested on: T4, O56B1
T4 sequence (whole entry): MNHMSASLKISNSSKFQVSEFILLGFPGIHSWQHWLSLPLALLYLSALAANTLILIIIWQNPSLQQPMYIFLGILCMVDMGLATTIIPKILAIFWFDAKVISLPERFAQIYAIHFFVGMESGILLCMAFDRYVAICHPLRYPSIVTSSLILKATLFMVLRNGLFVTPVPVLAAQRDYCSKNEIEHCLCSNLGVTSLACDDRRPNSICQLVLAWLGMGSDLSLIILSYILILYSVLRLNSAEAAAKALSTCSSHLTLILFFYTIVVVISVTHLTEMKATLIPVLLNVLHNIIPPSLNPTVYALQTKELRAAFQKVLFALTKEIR
Method in brief: as §1

[5] = tested on: T5, O56B4
T5 sequence (whole entry): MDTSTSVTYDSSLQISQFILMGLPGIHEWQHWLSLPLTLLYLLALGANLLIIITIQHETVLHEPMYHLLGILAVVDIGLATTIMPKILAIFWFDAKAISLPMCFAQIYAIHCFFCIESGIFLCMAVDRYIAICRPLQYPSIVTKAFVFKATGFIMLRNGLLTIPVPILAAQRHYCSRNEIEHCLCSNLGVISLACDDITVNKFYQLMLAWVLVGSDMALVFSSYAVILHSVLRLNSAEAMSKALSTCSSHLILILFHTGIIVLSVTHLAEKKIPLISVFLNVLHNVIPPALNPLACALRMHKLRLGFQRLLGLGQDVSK
Method in brief: as §1

[6] = tested on: T6, O5AC2
T6 sequence (whole entry): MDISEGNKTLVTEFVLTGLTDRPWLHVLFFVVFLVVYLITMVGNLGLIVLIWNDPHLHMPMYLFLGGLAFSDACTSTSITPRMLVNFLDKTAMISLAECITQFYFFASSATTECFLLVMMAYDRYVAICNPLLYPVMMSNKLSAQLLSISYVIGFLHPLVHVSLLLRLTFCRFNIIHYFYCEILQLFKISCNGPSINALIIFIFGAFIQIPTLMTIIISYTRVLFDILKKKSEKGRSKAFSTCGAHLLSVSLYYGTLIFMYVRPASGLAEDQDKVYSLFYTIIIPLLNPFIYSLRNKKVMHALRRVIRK
Method in brief: as §1

[7] = tested on: T7, O5AK2
T7 sequence (whole entry): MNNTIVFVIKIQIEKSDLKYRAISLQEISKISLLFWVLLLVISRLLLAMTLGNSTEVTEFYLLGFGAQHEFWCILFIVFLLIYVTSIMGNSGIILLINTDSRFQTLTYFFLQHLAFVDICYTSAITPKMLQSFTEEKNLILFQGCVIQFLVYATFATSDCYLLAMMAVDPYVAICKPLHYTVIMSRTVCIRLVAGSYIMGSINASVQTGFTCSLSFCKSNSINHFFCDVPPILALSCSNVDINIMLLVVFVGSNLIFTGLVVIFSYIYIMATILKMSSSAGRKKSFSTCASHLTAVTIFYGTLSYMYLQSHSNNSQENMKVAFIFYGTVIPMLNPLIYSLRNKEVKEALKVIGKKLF
Method in brief: as §1

[8] = tested on: T8, O5AK3
T8 sequence (whole entry): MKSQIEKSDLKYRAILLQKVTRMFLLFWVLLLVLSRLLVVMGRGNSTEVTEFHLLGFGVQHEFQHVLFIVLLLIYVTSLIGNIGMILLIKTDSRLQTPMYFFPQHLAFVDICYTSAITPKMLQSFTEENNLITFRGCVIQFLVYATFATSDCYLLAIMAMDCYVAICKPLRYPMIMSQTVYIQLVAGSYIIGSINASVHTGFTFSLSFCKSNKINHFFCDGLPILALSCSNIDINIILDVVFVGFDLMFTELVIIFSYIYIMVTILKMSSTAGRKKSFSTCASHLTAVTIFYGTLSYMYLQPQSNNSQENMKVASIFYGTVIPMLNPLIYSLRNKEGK
Method in brief: as §1

[9] = tested on: T9, O5AL1
T9 sequence (whole entry): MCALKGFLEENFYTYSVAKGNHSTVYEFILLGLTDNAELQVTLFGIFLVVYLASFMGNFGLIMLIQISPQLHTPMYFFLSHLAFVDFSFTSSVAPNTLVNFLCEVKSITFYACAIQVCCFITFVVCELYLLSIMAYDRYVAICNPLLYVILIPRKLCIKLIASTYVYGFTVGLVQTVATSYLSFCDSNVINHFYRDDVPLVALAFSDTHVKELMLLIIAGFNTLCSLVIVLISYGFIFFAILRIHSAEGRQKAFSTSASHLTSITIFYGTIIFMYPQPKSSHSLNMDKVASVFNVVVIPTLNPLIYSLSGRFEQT
Method in brief: as §1

[10] = tested on: T10, O5AP2
T10 sequence (whole entry): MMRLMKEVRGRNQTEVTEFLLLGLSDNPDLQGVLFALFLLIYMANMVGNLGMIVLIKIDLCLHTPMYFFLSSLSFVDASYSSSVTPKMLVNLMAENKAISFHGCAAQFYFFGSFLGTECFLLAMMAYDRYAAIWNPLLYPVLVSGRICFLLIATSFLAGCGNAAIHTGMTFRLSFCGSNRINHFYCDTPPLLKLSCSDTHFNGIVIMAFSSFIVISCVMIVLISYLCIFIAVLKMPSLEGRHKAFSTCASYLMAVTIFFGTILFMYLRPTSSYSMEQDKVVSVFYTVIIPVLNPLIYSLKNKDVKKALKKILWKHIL
Method in brief: as §1

Measured: odorant receptor agonist call

CCCCOC(C)=O
inactive: [1] | [2] | [3] | [4] | [5] | [6] | [7] | [8] | [9] | [10]
